These are yes or no findings as the source states them, for the method shown. Binding seen in cells or lysates may run through a third protein. A yes stands for co-enrichment or nearness to the bait. Other partners may have been found.
Biological target: T1, complement C1Q binding protein (C1qbp), endogenous in Raw264.7 macrophages (mouse (endogenous in Raw264.7)) (UniProt O35658)
T1 sequence: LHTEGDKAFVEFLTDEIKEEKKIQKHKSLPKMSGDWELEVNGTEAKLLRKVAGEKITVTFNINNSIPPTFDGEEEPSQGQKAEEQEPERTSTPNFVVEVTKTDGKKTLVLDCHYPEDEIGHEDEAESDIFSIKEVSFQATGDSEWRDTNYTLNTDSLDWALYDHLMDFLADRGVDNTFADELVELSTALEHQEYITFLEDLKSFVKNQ
Test: affinity purification with mass spectrometry; Raw264.7 whole-cell lysate incubated with anti-C1qbp antibody or control IgG overnight at 4 °C, then Protein A/G magnetic beads for 4 h; LC/MS/MS

The chains behind the UniProt entries cited, without tags or fusion partners.
UniProt P29351: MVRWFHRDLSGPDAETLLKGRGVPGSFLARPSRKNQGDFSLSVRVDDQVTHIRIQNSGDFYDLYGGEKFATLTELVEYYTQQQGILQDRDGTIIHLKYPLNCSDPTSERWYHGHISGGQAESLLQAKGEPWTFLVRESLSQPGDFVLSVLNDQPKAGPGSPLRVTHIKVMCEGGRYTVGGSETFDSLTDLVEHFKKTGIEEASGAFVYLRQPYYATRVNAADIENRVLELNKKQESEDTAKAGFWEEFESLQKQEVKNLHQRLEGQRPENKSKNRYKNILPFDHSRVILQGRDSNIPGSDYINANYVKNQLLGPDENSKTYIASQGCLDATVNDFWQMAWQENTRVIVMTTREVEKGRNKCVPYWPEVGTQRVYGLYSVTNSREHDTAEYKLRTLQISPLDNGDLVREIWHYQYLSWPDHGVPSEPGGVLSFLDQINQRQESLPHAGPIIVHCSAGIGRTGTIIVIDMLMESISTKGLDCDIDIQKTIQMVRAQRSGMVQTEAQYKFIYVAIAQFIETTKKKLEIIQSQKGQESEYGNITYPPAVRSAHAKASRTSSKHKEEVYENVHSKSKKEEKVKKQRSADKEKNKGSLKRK

tyrosine phosphatase Src homologous region 2 containing phosphatase 1 (Shp1), endogenous in Raw264.7 (from UniProt P29351 1-595) (enzyme)
binding: binds

B1: CD16 receptor (FcγRIIIA/CD16), endogenous in Raw264.7 (receptor, UniProt P08508 31-261)
chain: ALPKAVVKLDPPWIQVLKEDMVTLMCEGTHNPGNSSTQWFHNGRSIRSQVQASYTFKATVNDSGEYRCQMEQTRLSDPVDLGVISDWLLLQTPQRVFLEGETITLRCHSWRNKLLNRISFFHNEKSVRYHHYKSNFSIPKANHSHSGDYYCKGSLGSTQHQSKPVTITVQDPATTSSISLVWYHTAFSLVMCLLFAVDTGLYFYVRRNLQTPREYWRKSLSIRKHQAPQDK
binding: binds

From PMC11103506
